Assay results reported in PubChem BioAssay AID463205 (Broad Institute, 2010).
Among all 2,400 compounds or so, about 20 (0.8%) were called active.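 The calls were made as follows: active = AC50 no more than ten times the highest tested concentration, or full inhibition at every dose giving a flat fit (cut at about 30 µM in these data); inconclusive = flat fit with activity between 30% and 70%, or poor-quality invalid fit; inactive = AC50 more than ten times the top tested dose.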 The list shows a part of the results.

Experiment: inhibitors of ADP-Glo detection reagents, dose response, artefact control for GSK-3a inhibitor project, biochemical, luminescence, cell-free, homogeneous (AID 463205);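 also: kinase-free counter-screen against the ADP-Glo detection reagents only; potency is for inhibitors that reduce the luminescence signal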
Conditions: 5 uM ADP

AC50, inactive:
NC1=NC(=O)/C(=C/c2ccc(-c3ccc(S(N)(=O)=O)cc3)o2)S1 > 30 µM
COc1ccc(-c2cnc(N)nc2-c2ccc(OC)cc2O)cc1 > 30 µM
COc1ccc(-c2nnc(-c3ccccc3O)o2)cc1 > 30 µM
COc1c(-c2ccc(O)cc2)oc2cc(O)cc(O)c2c1=O > 30 µM
COc1ccc(-c2nc(N)ncc2-c2ccc(OC)c(OC)c2)c(O)c1 > 30 µM
CC(C)(C)C(=O)c1cnc(Nc2ccccc2Cl)s1 > 30 µM
CCC(Sc1ccc2nnc(-c3cccnc3)n2n1)C(=O)O (configuration not stated) > 30 µM
CCCCC(=O)Nc1ccc2c(c1)C(=O)NC2=O > 30 µM
CC1(C)CC(=O)C2=C(C1)Nc1ncnn1C2c1ccccn1 (configuration not stated) > 30 µM
O=C1NC(=O)/C(=C/c2ccc(O)cc2)S1 > 30 µM
COc1ccc(C2=Nn3c(nnc3-c3ccncc3)SC2)cc1OC > 30 µM
O=C(CCN1CCOCC1)Nc1cccc(Br)c1 > 30 µM
Cn1c(SCC(=O)N/N=C/C=C\c2ccco2)nc2ccccc21 > 30 µM
COc1cc(Br)c(C2C(C#N)=C(N)Oc3n[nH]c(-c4cccnc4)c32)cc1OC (configuration not stated) > 30 µM
CC1CCCCC12NC(=O)N(CC(=O)Nc1sccc1C(N)=O)C2=O (configuration not stated) > 30 µM
COc1ccc2nc(SCC(=O)Nc3nccs3)[nH]c2c1 > 30 µM
Cc1onc(-c2c(F)cccc2Cl)c1C(=O)OCC(=O)Nc1c(C)n(C)n(-c2ccccc2)c1=O > 30 µM
Cc1cccc(Nc2nc(C)cc(C)n2)c1 > 30 µM
c1ccc2c3c([nH]c2c1)-c1[nH]ncc1CC3 > 30 µM
CC(=O)CSc1nc(N)c(C#N)c(-c2cccs2)c1C#N > 30 µM
c1ccc2[nH]c(-c3ccncc3)nc2c1 > 30 µM
CC(CC(=O)Nc1ncc([N+](=O)[O-])s1)c1ccccc1 (configuration not stated) > 30 µM
Cc1cccc(/C=c2\s/c(=C\C(=O)C(C)(C)C)[nH]c2=O)c1 > 30 µM
COc1cc2c(cc1OC)-c1nnc(C)n1C1(CCCC1)C2 > 30 µM
Cc1ccc(NC(=O)CSc2nnc(-c3ccncc3)o2)cc1 > 30 µM
Oc1ccc(-c2n[nH]c(=S)n2Cc2ccccc2)cc1 > 30 µM
COc1ccc(Nc2nc(-c3cc4cccc(OC)c4oc3=O)cs2)cc1 > 30 µM
COc1ccc(-c2nc(N)ncc2-c2ccccc2)c(O)c1 > 30 µM
CCOC(=O)c1[nH]c2c(c1C)C(=O)CC(c1ccc(OC)c(OC)c1)C2 (configuration not stated) > 30 µM
CCCCOC(=O)C1=C(C)Nc2ncnn2C1c1cc(OC)ccc1OC (configuration not stated) > 30 µM
CCc1cccc(NC(=O)C2CCN(c3ncnc4sc(C)c(C)c34)CC2)c1 > 30 µM
O=C(c1ccco1)c1cn(CC(=O)N2CCCC2)c2ccccc12 > 30 µM
O=C(CN(Cc1ccc(F)cc1)C(=O)CCC(=O)Nc1nccs1)NCc1ccc(F)cc1 > 30 µM
O=C(Nc1nccs1)C1CCN(S(=O)(=O)c2cnc[nH]2)CC1 > 30 µM
COc1ccc(CC(=O)Nc2nccs2)cc1OC > 30 µM
COC(=O)c1ccc(CSc2nnc(SCc3ccc(C(=O)OC)o3)s2)o1 > 30 µM
CN(C)CCCNc1oc(-c2ccccc2)nc1C#N > 30 µM
O=C(/C=C/c1cccc2ccccc12)c1ccncc1 > 30 µM
COCCNc1nc(N)c([N+](=O)[O-])c(N2CCCCCC2)n1 > 30 µM
CN1/C(=C/C(=O)C2CC2)C(C)(C)c2ccccc21 > 30 µM
COc1ccc2cc(C(N)=O)c(=Nc3ccccc3)oc2c1 > 30 µM
C/C(NCCCn1ccnc1)=C(\C#N)C(N)=O > 30 µM
Cc1ccc(-n2c(C)c([N+](=O)[O-])c3ccc(O)c(CN(C)C)c32)cc1 > 30 µM
Cc1c(CN(C)C)c2c(n1Cc1ccccc1)C(=O)c1ccc(Br)cc1-2 > 30 µM
c1ccc(-c2noc(CSc3nnnn3-c3ccccc3)n2)cc1 > 30 µM
CCOC(=O)c1cc(-c2ccc(F)cc2)n(CC(=O)NCc2cccnc2)c1C > 30 µM
CC(C)C(=O)Nc1cccc2nsnc12 > 30 µM
CCOC(=O)c1cccnc1NC(=O)c1ccncc1 > 30 µM
Cc1ccc(OCC(=O)NNC(=O)C(C)Sc2ncnc3sc(C)c(C)c23)cc1 (configuration not stated) > 30 µM
N#C/C(=N\Nc1c(Cl)cccc1Cl)C(=O)NN > 30 µM
O=[N+]([O-])c1ccc(NC2CCCC2)cc1 > 30 µM
COc1c(-c2ccc(O)c(O)c2)oc2cc(O)cc(O)c2c1=O > 30 µM
COc1ccc(C2=Nn3c(nnc3-c3ccccc3)SC2)cc1OC > 30 µM
COc1cccc(/C=N/n2nnnc2N)c1OCC#N > 30 µM
CN1CCC(=NNC(=O)C(=O)NC2CCCC2)CC1 > 30 µM
O=[N+]([O-])c1cnc2nc(-c3ccncc3)nn2c1O > 30 µM
Cc1ccc(C2C3=C(CCCC3=O)Nc3[nH]c(=S)[nH]c(=O)c32)cc1 (configuration not stated) > 30 µM
CC(=O)Nc1cccc(-c2csc(N)n2)c1 > 30 µM
Cc1cccc2c(N=Nc3ccccc3)c(O)[nH]c12 > 30 µM
Brc1ccc(-c2nc3ncccn3c2NC2CCCCC2)o1 > 30 µM
CCOc1ccc(Nc2nc(NCc3ccco3)nc(N)c2[N+](=O)[O-])cc1 > 30 µM
Cc1ccc(N=Nc2c(O)ccc3n[nH]nc23)cc1 > 30 µM
CCOC(=O)c1cc(-c2ccc(F)cc2)n(CC(=O)NCc2ccccn2)c1C > 30 µM
COc1ccc(-c2cc(C(F)(F)F)nc(SCCC(=O)NCc3ccco3)n2)cc1 > 30 µM
CCCCOC(=O)c1ccc(N/C(=N\S(=O)(=O)c2ccccc2)c2ccccc2)cc1 > 30 µM
O=C(Nc1cccc(-c2cnc3ccccc3n2)c1)c1ccco1 > 30 µM
CCSC1(SCC)N=C(N)C2(C#N)C(c3ccc(F)cc3)C12C#N (configuration not stated) > 30 µM
Cc1cc(C)c2[nH]c(O)c(N=Nc3ccc(C(=O)O)cc3)c2c1 > 30 µM
O=C(NCCN1CCN(Cc2ccccc2Cl)CC1)Nc1ccccc1 > 30 µM
CC1CCN(Cc2c(C(=O)N/N=C/c3ccc(C(F)(F)F)cc3)nnn2-c2nonc2N)CC1 > 30 µM
N#Cc1c(Nc2ccccc2)c(/C=N/NCCO)c[nH]c1=O > 30 µM
Clc1ccc(-c2nnc(SCc3nc(-c4ccccc4)no3)o2)cc1 > 30 µM
Fc1ccc(/C=N/Nc2ncnc3nc[nH]c23)cc1F > 30 µM
CCc1c(C)c(C#N)c2nc3ccccc3n2c1NCC1CCCO1 (configuration not stated) > 30 µM
CCN1CCc2c(C#N)c(N3CCOCC3)nc(NCCO)c2C1 > 30 µM
O=C(c1ccccc1)c1cnc(Nc2ccccc2Cl)s1 > 30 µM
Brc1ccc(-c2nnc3ccc(Nc4ccccc4)nn23)cc1 > 30 µM
CCOC(=O)c1[nH]c2c(c1-c1ccccc1)C(=O)CC(c1ccc(OC)c(OC)c1)C2 (configuration not stated) > 30 µM
C=CCN1C(=O)/C(=C\c2cccs2)C(C(=O)OC)=C1C > 30 µM
Cc1ccc2oc(=O)c3cnn(CC(=O)N4CCN(c5ccccc5)CC4)c3c2c1 > 30 µM
CC(C)(C)N1C(=O)c2ccc(C(=O)O)cc2C1=O > 30 µM
CNC(=O)c1ccc(NC(=O)C2CCN(c3ncnc4sc(C)c(C)c34)CC2)cc1 > 30 µM
Cc1sc2ncnc(NCc3ccco3)c2c1C > 30 µM
c1ccc(CN2CCN(CCCNc3ccc4nnc(-c5ccccc5)n4n3)CC2)cc1 > 30 µM
Cc1ccccc1Cn1c(-c2ccc(=O)[nH]c2)nc2ccccc21 > 30 µM
NC(=O)c1sc2nccc(Nc3ccccc3)c2c1N > 30 µM
O=C(NC(=S)Nc1cccc2cnccc12)c1ccccc1 > 30 µM
COc1ccccc1-c1noc(CSc2nc(C)cc(=O)[nH]2)n1 > 30 µM
CCC(=O)NC(=S)Nc1cccc(C(C)=O)c1 > 30 µM
Nc1nc(SCC(=O)Nc2ccc(Oc3ccccc3)cc2)n[nH]1 > 30 µM
COc1ccc(N=Nc2c(C)n[nH]c2C)cc1 > 30 µM
O=Cc1c(NCCc2cccc(F)c2)c2ccccc2[nH]c1=O > 30 µM
Cc1ccc(C2CC(=O)N3CN(Cc4ccco4)CSC3=C2C#N)cc1 (configuration not stated) > 30 µM
COc1ccccc1Nc1nc(C)cc(C)n1 > 30 µM
Cc1oc2ccc(O)cc2c1C(=O)c1ccc(Br)cc1 > 30 µM
Cc1cccc(C(=O)Nc2nccs2)c1[N+](=O)[O-] > 30 µM
COc1ccc(Nc2nc(S(=O)(=O)c3ccc(C)cc3)c(Cl)s2)cc1 > 30 µM

Among those listed so far, these have a CF3 group.
AC50, inactive:
COc1ccc(-c2cc(C(F)(F)F)nc(SCCC(=O)NCc3ccco3)n2)cc1 > 30 µM
CC1CCN(Cc2c(C(=O)N/N=C/c3ccc(C(F)(F)F)cc3)nnn2-c2nonc2N)CC1 > 30 µM

Two entries drawn at random from those above:
AC50, inactive:
O=C1NC(=O)/C(=C/c2ccc(O)cc2)S1 > 30 µM
CNC(=O)c1ccc(NC(=O)C2CCN(c3ncnc4sc(C)c(C)c34)CC2)cc1 > 30 µM
